{"source": "paper PMC10566187", "biological_target": "T1, meiotic nuclear divisions 1 (MND1), Flag-tagged (UniProt Q9BWT6)", "T1 sequence": "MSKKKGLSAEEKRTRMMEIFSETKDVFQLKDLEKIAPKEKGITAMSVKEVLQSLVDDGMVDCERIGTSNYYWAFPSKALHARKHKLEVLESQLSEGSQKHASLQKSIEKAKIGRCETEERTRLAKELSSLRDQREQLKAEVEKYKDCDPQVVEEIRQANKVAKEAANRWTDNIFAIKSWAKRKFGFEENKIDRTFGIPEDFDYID", "assay": "co-IP; CO-IP kit (Absin), detection by Western blot; cells and direction of the precipitation not given", "note": "These are yes or no findings as the source states them, for the method shown. Binding seen in cells or lysates may run through a third protein. Some entries that bind do so weakly or less than the wild type. Sequences can lack the tags named with a protein."}
{"binder": "transketolase (TKT) (protein, UniProt P29401 1-623) MESYHKPDQQKLQALKDTANRLRISSIQATTAAGSGHPTSCCSAAEIMAVLFFHTMRYKSQDPRNPHNDRFVLSKGHAAPILYAVWAEAGFLAEAELLNLRKISSDLDGHPVPKQAFTDVATGSLGQGLGAACGMAYTGKYFDKASYRVYCLLGDGELSEGSVWEAMAFASIYKLDNLVAILDINRLGQSDPAPLQHQMDIYQKRCEAFGWHAIIVDGHSVEELCKAFGQAKHQPTAIIAKTFKGRGITGVEDKESWHGKPLPKNMAEQIIQEIYSQIQSKKKILATPPQEDAPSVDIANIRMPSLPSYKVGDKIATRKAYGQALAKLGHASDRIIALDGDTKNSTFSEIFKKEHPDRFIECYIAEQNMVSIAVGCATRNRTVPFCSTFAAFFTRAFDQIRMAAISESNINLCGSHCGVSIGEDGPSQMALEDLAMFRSVPTSTVFYPSDGVATEKAVELAANTKGICFIRTSRPENAIIYNNNEDFQVGQAKVVLKSKDDQVTVIGAGVTLHEALAAAELLKKEKINIRVLDPFTIKPLDRKLILDSARATKGRILTVEDHYYEGGIGEAVSSAVVGEPGITVTHLAVNRVPRSGKPAELLKMFGIDRDAIAQAVRGLITKA", "values": [{"measurement": "binding", "value": "binds"}]}
